Experimental data: patent publication US20250084044A1, “PROTOPORPHYRINOGEN OXIDASE INHIBITORS” (Enko Chem, Inc., priority 2022, published 2025)
Like-named read-outs stand apart in the source and are kept apart here. Some of these results come from one statement about several compounds together.

Target: T1, Amaranthus tuberculantum Protoporphyrinogen Oxidase (AmPPO) (Amaranthus tuberculatus, UniProt Q0NZW9)
T1 construct: fused on or other part: C-terminal His tag (pET28b vector)
T1 sequence (Q0NZW9 1-534): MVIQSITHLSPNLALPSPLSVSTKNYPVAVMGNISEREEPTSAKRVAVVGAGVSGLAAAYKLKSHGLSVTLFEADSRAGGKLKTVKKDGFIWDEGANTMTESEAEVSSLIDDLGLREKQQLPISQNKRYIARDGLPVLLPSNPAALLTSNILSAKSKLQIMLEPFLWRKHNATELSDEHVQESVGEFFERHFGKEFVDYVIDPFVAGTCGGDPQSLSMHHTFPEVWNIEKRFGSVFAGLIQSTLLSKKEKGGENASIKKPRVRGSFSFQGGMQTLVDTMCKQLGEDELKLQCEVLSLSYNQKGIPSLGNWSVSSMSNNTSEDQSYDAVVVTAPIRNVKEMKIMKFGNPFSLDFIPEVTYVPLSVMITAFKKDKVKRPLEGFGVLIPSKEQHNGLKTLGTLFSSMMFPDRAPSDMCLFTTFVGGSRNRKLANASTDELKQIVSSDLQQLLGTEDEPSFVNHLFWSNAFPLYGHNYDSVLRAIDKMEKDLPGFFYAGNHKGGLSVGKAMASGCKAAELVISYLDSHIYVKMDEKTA
Test: PPO in vitro assay (AmPPO)
Format: biochemical

Compound: CC[C@@H](C(=O)OC)N1C(=O)C(F)(F)Oc2cc(F)c(-c3c(F)c(F)c(F)c(F)c3F)cc21 [Compound 49, methyl (S)-2-(2,2,7-trifluoro-3-oxo-6-(perfluorophenyl)-2,3-dihydro-4H-benzo[b][1,4]oxazin-4-yl)butanoate]
- IC50: < 100 nM
- IC50 (Example 17b): < 100 nM

Compound: COC(=O)[C@@H]1CS(=O)(=O)CCN1C(=O)CN1C(=O)C(F)(F)Oc2cc(F)c(-c3c(F)c(F)c(F)c(F)c3F)cc21 [Compound 119, methyl (R)-4-(2-(2,2,7-trifluoro-3-oxo-6-(perfluorophenyl)-2,3-dihydro-4H-benzo[b][1,4]oxazin-4-yl)acetyl)thiomorpholine-3-carboxylate 1,1-dioxide]
- IC50: < 100 nM
- IC50 (Example 17b): < 100 nM

Compound: O=C(CN1C(=O)C(F)(F)Oc2cc(F)c(-c3c(F)c(F)c(F)c(F)c3F)cc21)NO [Compound 71, N-hydroxy-2-(2,2,7-trifluoro-3-oxo-6-(perfluorophenyl)-2,3-dihydro-4H-benzo[b][1,4]oxazin-4-yl)acetamide]
- IC50: < 100 nM
- IC50 (Example 17b): < 100 nM

Compound: O=C(O)C1CN(C(=O)CN2C(=O)C(F)(F)Oc3cc(F)c(-c4c(F)c(F)c(F)c(F)c4F)cc32)C1 [Compound 87, 1-(2-(2,2,7-trifluoro-3-oxo-6-(perfluorophenyl)-2,3-dihydro-4H-benzo[b][1,4]oxazin-4-yl)acetyl)azetidine-3-carboxylic acid]
- IC50: < 100 nM
- IC50 (Example 17b): < 100 nM

Compound: COC(=O)[C@H](C)N1C(=O)C(F)(F)Oc2cc(F)c(-c3c(F)cc(F)c(F)c3F)cc21 [Compound 76, methyl (2S)-2-(2,2,7-trifluoro-3-oxo-6-(2,3,4,6-tetrafluorophenyl)-2,3-dihydro-4H-benzo[b][1,4]oxazin-4-yl)propanoate]
- IC50: < 100 nM
- IC50 (Example 17b): < 100 nM
